From patent US5424185A, “Human high-affinity neurotransmitter uptake system” (Baylor College of Medicine, priority 1990, dated 1995)
“Also recorded” adds a separate entry of the source. At least one structure is not confirmed: it was looked up by name or label, or the drawing left a doubt. Some entries repeat one wording, which the source may state once for all of them.

Legend:
[1] = tested on: human L-glutamate transporter (L-Glul cells); experiment: L-[3H]glutamate uptake by L-Glul cells; assay type: cell-based; settings: unlabelled neurotransmitters, EAA receptor ligands, co-transporter inhibitors
Protocol: Both L-Glul and L-M cells were assessed for their kinetic properties of [^3 H] Glu uptake, and the results were analyzed by fitting to Michaelis-Menten kinetics. This was done by incubating cells with differing concentrations of [^3 H] Glu (ranging from 0.05 to 2 μM) for 10 minutes, at both 37° C. and 0° C. The amount of [^3 H] Glu retained by the cells following incubation was then quantitated and converted (using the manufacturer's specific activity for [^3 H] Glu to the corresponding picomole-equivalent of the radioligand, for each concentration of radioligand at each temperature. Then, the pmol value is normalized by the length of incubation and the amount of protein corresponding to the number of cells assayed. The resulting value, expressed in units of pmol/min/mg protein, is the initial velocity value for each concentration of [^3 H] Glu at each temperature. The initial velocity measured at 37° C. represents total initial velocity; the initial velocity measured at 0° C. represents nonspecific initial velocity. The difference between these two velocity values is then the specific initial velocity, denoted by "V", for each concentration of [^3 H] Glu.
Various drugs specific for excitatory amino acid (EAA) receptor subtypes were assessed for their effects on [^3 H] Glu uptake by L-Glul cells.
Glu uptake by L-Glul cells.

[2] = tested on: GABA transporter (L-GAB1 cells); experiment: [3H]GABA uptake by L-GAB1 cells; assay type: cell-based, human; settings: competitor at 100-fold excess relative to [3H]GABA
Protocol: Using concentrations of [^3 H] GABA ranging from 2 to 500 μM, the kinetic profile of GABA uptake was determined for both L-GAB1 and L-M cells. The initial velocity of GABA uptake was measured and plotted against the corresponding [^3 H] GABA concentration for both cell lines. […] The velocity profile for L-GAB1 cells was subtracted by that of L-M cells, and the resulting data used for a double-reciprocal plot of velocity-^1 against GABA concentration-^1. The velocity profile for L-M cells was also transformed into a double-reciprocal plot.
Several known inhibitors of high-affinity GABA uptake were used to examine their efficacies in inhibiting [^3 H] GABA uptake by L-GAB1 cells. […] Each of these agents was used at several concentrations ranging from 1 to 100 μM in assays of [^3 H] GABA uptake by L-GAB1 cells. […] GABA uptake by L-GAB1 cells.
L-GAB1 cells were also analyzed in terms of their ligand-specificity in the high-affinity GABA uptake mechanism.

[3] = tested on: aspartate/glutamate co-transport system (L-Aspl cells); experiment: D-[3H]aspartate uptake by L-Aspl cells; assay type: cell-based, human
Protocol: Kinetic analyses of D-[^3 H] […] Asp. […] Asp uptake.
The specificity of the high-affinity transport mechanism in L-Aspl cells also was examined. […] Asp.
The high-affinity transport system in L-Aspl cells was also analyzed in terms of its relative sensitivity to compounds specific for various subtypes of excitatory amino acid (EAA) receptors.
A series of known inhibitors of high-affinity D-Asp uptake systems (including L-cysteic acid (L-CA), L-cysteine sulfinic acid (L-CSA), aminophosphonoproprionic acid (APPA) and D-threoaspartic acid (THAA)) were also tested for their effects on D-[^3 H] Asp uptake by L-Aspl cells.

Structure (SMILES) | effect on [3H]Glu uptake by L-Glul cells [1] | ligand-specificity of [3H]GABA uptake by L-GAB1 cells [2] | transport Vmax of D-[3H]Asp uptake, L-Aspl ([3]; 0.1 to 10 μM D-[3H]Asp) [pmol/min/mg protein] | effect on D-[3H]Asp uptake by L-Aspl cells [3]
N[C@H](CC(=O)O)C(=O)O [D-aspartate] | do not inhibit | somewhat sensitive | 35 | 
N[C@@H](CC(=O)O)C(=O)O [L-aspartate] | do not inhibit | not sensitive |  | inhibitory effect; also recorded: inhibited
